These are yes or no findings as the source states them, for the method shown. Some results given as binding are weak or reduced against the parent protein; the word gives no strength. Where a sequence is shown, tags or fusion partners need not be part of it.
T1: SPINDLY (SPY), full-length, yeast two-hybrid bait (BD) (Arabidopsis thaliana) (UniProt Q96301)
T1 sequence: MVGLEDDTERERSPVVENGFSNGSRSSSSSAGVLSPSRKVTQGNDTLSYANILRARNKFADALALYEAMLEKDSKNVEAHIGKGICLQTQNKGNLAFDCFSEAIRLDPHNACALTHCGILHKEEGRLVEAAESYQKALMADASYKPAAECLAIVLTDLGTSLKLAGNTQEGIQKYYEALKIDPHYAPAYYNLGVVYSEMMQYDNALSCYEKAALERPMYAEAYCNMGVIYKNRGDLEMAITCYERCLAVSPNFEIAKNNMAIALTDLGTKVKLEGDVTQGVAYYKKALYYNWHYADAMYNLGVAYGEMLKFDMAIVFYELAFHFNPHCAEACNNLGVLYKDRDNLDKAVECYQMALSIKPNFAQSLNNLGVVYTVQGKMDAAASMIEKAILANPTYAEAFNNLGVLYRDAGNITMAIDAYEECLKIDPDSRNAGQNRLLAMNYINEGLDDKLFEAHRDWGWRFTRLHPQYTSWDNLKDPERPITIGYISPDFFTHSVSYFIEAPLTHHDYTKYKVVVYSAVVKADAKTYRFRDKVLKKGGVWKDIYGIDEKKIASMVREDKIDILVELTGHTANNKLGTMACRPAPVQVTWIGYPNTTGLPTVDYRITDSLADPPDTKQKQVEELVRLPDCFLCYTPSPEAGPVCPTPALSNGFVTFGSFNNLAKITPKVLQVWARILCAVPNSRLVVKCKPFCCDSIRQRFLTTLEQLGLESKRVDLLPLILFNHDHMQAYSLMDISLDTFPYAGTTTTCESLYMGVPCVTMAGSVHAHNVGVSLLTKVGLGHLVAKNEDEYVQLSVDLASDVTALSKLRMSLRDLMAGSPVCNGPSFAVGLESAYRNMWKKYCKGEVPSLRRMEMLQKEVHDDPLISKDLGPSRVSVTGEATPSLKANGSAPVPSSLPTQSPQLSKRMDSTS

T2: SECRET AGENT (SEC), full-length, yeast two-hybrid bait (BD) (Arabidopsis thaliana) (UniProt Q9M8Y0)
T2 sequence: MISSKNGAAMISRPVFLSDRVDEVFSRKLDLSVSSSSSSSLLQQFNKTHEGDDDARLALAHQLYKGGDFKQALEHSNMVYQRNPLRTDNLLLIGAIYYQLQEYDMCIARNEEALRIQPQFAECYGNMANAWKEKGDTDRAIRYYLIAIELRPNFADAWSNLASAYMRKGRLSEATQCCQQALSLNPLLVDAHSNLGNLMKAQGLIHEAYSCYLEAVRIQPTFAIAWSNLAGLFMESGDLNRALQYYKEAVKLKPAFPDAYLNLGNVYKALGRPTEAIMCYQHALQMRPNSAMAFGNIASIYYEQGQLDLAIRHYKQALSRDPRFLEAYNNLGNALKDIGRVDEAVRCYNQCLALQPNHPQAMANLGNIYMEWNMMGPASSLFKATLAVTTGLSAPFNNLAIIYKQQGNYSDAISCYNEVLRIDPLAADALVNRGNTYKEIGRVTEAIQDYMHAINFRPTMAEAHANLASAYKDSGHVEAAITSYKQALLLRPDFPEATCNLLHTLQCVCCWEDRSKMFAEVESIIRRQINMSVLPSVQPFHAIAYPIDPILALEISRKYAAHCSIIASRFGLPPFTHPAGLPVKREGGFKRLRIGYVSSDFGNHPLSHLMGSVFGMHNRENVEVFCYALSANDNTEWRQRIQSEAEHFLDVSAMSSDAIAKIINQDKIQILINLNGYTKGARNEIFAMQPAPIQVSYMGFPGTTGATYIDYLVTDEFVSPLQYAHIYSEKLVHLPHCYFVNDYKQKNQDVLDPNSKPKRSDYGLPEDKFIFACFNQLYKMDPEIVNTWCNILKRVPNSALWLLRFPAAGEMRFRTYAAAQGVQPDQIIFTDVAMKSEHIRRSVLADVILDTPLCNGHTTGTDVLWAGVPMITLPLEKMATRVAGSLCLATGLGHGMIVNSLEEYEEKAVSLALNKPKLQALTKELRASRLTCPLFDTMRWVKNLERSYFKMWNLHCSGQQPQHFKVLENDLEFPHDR


Columns and labels:
[1] = target: T1, SPINDLY (SPY), full-length, yeast two-hybrid bait (BD) (Arabidopsis thaliana); test: two-hybrid
[2] = target: T2, SECRET AGENT (SEC), full-length, yeast two-hybrid bait (BD) (Arabidopsis thaliana); test: two-hybrid

Row | binding [1] | binding [2] | Binder
1 | binds | binds | SPT N-terminal domain (residues 1-180), yeast two-hybrid prey (AD) (domain or fragment, UniProt Q9FUA4 1-180) MISQREEREEKKQRVMGDKKLISSSSSSSVYDTRINHHLHHPPSSSDEISQFLRHIFDRSSPLPSYYSPATTTTTASLIGVHGSGDPHADNSRSLVSHHPPSDSVLMSKRVGDFSEVLIGGGSGSAAACFGFSGGGNNNNVQGNSSGTRVSSSSVGASGNETDEYDCESEEGGEAVVDEA
2 | no binding | binds | SPT C-terminal truncation (residues 136-373), yeast two-hybrid prey (AD) (domain or fragment, UniProt Q9FUA4 136-373) GNNNNVQGNSSGTRVSSSSVGASGNETDEYDCESEEGGEAVVDEAPSSKSGPSSRSSSKRCRAAEVHNLSEKRRRSRINEKMKALQSLIPNSNKTDKASMLDEAIEYLKQLQLQVQMLTMRNGINLHPLCLPGTTLHPLQLSQIRPPEATNDPLLNHTNQFASTSNAPEMINTVASSYALEPSIRSHFGPFPLLTSPVEMSREGGLTHPRLNIGHSNANITGEQALFDGQPDLKDRIT
3 | binds | binds | SPT fragment containing only the Amphipathic domain (residues 1-135), yeast two-hybrid prey (AD) (domain or fragment, UniProt Q9FUA4 1-135) MISQREEREEKKQRVMGDKKLISSSSSSSVYDTRINHHLHHPPSSSDEISQFLRHIFDRSSPLPSYYSPATTTTTASLIGVHGSGDPHADNSRSLVSHHPPSDSVLMSKRVGDFSEVLIGGGSGSAAACFGFSGG
